In this assay the target is T1, Endogenous DDX11 (human (endogenous in HEK293T)) (UniProt Q96FC9).
T1 sequence: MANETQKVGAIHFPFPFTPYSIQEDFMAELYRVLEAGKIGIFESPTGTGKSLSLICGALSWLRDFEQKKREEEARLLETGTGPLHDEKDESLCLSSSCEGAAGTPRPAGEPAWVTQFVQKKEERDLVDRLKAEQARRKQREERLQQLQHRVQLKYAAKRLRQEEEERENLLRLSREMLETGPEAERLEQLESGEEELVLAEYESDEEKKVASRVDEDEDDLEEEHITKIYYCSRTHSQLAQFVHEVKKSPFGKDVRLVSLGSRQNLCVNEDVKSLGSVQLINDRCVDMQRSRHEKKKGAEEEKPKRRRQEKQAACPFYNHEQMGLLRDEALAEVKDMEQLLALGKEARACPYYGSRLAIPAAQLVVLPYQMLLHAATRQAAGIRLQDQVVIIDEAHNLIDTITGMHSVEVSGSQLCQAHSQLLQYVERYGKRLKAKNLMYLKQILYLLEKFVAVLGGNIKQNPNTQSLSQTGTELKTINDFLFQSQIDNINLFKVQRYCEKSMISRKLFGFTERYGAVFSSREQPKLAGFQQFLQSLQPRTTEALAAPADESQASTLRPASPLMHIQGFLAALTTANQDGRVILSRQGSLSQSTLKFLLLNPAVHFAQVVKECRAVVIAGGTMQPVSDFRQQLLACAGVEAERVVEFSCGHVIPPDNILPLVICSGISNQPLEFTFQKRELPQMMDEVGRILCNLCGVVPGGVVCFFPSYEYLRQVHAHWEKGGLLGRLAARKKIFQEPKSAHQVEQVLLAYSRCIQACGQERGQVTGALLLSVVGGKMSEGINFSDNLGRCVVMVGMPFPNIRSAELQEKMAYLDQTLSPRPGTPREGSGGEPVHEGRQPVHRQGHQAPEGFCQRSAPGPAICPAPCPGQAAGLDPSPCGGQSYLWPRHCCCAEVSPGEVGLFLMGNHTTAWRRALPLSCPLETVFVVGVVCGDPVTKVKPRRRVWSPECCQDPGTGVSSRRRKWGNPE
The assay is described as follows: co-IP; endogenous proteins; HEK293T uninfected or infected with SeV for 12 h; immunoprecipitation with anti-DDX11 antibody, IgG as negative control; western blot.

Amino acid sequences for entries named in this document (tags omitted).
UniProt Q7Z434: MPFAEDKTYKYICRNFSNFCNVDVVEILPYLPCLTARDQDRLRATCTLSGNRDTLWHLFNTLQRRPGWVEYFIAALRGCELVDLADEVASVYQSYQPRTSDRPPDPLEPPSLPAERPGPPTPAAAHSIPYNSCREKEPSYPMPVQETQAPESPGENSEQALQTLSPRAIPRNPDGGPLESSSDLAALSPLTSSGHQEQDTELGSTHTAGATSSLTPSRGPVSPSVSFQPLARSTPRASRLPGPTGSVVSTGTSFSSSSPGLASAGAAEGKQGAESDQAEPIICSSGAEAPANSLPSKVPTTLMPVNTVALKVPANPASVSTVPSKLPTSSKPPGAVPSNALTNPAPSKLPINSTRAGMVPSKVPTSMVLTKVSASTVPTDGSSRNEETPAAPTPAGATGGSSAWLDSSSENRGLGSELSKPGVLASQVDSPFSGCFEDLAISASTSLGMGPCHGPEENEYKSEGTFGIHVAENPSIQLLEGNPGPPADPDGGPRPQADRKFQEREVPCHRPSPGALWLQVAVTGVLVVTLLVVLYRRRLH

These are yes or no findings as the source states them, for the method shown. In cells and extracts the contact can be indirect. Some results given as binding are weak or reduced against the parent protein; the word gives no strength.

Take “Endogenous MAVS (from UniProt Q7Z434 1-540)”: the binding entry is listed as “binds”.

B1: Endogenous RIG-I (protein, UniProt O95786 1-925)
chain: MTTEQRRSLQAFQDYIRKTLDPTYILSYMAPWFREEEVQYIQAEKNNKGPMEAATLFLKFLLELQEEGWFRGFLDALDHAGYSGLYEAIESWDFKKIEKLEEYRLLLKRLQPEFKTRIIPTDIISDLSECLINQECEEILQICSTKGMMAGAEKLVECLLRSDKENWPKTLKLALEKERNKFSELWIVEKGIKDVETEDLEDKMETSDIQIFYQEDPECQNLSENSCPPSEVSDTNLYSPFKPRNYQLELALPAMKGKNTIICAPTGCGKTFVSLLICEHHLKKFPQGQKGKVVFFANQIPVYEQQKSVFSKYFERHGYRVTGISGATAENVPVEQIVENNDIIILTPQILVNNLKKGTIPSLSIFTLMIFDECHNTSKQHPYNMIMFNYLDQKLGGSSGPLPQVIGLTASVGVGDAKNTDEALDYICKLCASLDASVIATVKHNLEELEQVVYKPQKFFRKVESRISDKFKYIIAQLMRDTESLAKRICKDLENLSQIQNREFGTQKYEQWIVTVQKACMVFQMPDKDEESRICKALFLYTSHLRKYNDALIISEHARMKDALDYLKDFFSNVRAAGFDEIEQDLTQRFEEKLQELESVSRDPSNENPKLEDLCFILQEEYHLNPETITILFVKTRALVDALKNWIEGNPKLSFLKPGILTGRGKTNQNTGMTLPAQKCILDAFKASGDHNILIATSVADEGIDIAQCNLVILYEYVGNVIKMIQTRGRGRARGSKCFLLTSNAGVIEKEQINMYKEKMMNDSILRLQTWDEAVFREKILHIQTHEKFIRDSQEKPKPVPDKENKKLLCRKCKALACYTADVRVIEECHYTVLGDAFKECFVSRPHPKPKQFSSFEKRAKIFCARQNCSHDWGIHVKYKTFEIPVIKIESFVVEDIATGVQTLYSKWKDFHFEKIPFDPAEMSK
Regarding B1, the binding result was “binds”.

For the origin of these results see publication PMC11633105.
